Measurements: the supplement of paper PMC12823440, “Inhibitors supercharge kinase turnover through native proteolytic circuits” (Nature, 2025)
Some of the results follow. The calls rarely recur for the same compound in another form.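 Kinases were expressed as nanoluciferase fusions in K562 cells and luminescence was read every 4 h between 2 and 18 h as percent of control, DMSO set to 100% and a positive control to 0%. A time point counts as decreased when the signal drops significantly (2 sigma). The hit call is the authors' own, does not follow from the count of time points alone, and its rule is not shown.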

Sequences of proteins named here, by UniProt entry; tags and fusion partners are left off. A change or cut given only in a name is not applied to a line headed by its entry.
UniProt P53667: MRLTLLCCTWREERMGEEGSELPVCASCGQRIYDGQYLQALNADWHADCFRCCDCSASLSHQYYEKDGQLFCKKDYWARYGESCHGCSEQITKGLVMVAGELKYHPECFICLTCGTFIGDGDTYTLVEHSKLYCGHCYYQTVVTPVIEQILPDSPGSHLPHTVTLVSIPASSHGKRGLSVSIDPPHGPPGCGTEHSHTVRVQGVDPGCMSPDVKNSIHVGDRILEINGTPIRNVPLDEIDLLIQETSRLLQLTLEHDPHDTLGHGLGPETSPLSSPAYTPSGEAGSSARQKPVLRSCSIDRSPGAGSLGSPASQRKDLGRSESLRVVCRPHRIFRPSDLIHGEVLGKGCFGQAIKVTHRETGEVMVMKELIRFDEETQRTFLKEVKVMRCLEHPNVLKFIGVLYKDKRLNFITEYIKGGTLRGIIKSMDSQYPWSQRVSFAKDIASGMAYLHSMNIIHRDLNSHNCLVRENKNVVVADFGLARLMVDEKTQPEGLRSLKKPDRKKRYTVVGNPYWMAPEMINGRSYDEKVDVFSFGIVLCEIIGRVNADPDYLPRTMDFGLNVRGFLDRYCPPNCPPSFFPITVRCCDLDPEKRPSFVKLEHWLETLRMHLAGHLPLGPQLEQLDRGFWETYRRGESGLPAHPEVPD
UniProt Q8IWU2: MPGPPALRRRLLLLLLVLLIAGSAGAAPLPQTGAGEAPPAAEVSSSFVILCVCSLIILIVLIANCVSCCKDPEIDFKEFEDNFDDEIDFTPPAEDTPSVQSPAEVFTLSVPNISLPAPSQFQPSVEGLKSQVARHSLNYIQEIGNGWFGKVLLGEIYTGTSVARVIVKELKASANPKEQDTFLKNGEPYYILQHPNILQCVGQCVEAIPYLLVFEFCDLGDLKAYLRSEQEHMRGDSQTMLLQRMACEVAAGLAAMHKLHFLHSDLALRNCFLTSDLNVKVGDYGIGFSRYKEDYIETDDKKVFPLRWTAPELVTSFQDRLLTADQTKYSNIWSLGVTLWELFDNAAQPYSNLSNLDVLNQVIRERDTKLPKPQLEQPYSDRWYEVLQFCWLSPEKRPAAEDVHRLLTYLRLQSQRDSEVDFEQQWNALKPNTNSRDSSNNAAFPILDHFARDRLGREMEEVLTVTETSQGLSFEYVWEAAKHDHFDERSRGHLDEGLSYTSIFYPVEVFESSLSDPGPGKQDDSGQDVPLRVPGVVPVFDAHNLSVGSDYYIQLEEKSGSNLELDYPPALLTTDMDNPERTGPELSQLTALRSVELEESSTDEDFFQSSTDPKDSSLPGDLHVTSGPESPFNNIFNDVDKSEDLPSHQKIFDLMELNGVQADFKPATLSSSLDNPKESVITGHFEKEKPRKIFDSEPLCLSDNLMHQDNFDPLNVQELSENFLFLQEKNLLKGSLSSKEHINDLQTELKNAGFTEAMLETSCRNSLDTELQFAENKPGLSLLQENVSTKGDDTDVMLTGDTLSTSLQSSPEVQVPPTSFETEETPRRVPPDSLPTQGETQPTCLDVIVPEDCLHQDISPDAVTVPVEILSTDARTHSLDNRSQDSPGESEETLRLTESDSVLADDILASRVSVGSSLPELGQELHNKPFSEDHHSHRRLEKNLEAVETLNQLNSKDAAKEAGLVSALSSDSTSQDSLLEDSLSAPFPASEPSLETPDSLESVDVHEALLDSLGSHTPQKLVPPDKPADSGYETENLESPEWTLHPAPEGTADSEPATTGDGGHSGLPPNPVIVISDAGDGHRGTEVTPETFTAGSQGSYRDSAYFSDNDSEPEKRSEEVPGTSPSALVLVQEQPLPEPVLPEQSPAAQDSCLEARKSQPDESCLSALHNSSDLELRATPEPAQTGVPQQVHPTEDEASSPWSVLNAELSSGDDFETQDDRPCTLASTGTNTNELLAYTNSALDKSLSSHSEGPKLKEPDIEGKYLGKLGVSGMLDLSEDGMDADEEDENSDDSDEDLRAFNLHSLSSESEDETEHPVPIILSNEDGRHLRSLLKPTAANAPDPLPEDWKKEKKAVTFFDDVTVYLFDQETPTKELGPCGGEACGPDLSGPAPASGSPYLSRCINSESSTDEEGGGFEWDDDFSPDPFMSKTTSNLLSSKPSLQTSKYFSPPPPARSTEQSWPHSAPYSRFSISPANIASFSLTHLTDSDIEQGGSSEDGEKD
UniProt P07948: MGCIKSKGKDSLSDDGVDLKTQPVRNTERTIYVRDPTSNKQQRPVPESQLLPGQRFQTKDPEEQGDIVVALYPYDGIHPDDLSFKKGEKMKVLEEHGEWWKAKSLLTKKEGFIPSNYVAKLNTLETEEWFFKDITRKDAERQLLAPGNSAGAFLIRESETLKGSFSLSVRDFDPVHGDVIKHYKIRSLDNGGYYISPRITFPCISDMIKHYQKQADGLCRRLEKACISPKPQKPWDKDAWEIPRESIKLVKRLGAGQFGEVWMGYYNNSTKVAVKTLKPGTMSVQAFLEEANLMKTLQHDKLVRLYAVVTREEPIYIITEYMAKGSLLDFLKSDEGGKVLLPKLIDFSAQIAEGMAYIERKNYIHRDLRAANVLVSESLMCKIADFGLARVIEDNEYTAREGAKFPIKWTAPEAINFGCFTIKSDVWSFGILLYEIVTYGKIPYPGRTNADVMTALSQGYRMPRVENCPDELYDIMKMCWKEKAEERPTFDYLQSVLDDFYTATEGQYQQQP
UniProt Q12851: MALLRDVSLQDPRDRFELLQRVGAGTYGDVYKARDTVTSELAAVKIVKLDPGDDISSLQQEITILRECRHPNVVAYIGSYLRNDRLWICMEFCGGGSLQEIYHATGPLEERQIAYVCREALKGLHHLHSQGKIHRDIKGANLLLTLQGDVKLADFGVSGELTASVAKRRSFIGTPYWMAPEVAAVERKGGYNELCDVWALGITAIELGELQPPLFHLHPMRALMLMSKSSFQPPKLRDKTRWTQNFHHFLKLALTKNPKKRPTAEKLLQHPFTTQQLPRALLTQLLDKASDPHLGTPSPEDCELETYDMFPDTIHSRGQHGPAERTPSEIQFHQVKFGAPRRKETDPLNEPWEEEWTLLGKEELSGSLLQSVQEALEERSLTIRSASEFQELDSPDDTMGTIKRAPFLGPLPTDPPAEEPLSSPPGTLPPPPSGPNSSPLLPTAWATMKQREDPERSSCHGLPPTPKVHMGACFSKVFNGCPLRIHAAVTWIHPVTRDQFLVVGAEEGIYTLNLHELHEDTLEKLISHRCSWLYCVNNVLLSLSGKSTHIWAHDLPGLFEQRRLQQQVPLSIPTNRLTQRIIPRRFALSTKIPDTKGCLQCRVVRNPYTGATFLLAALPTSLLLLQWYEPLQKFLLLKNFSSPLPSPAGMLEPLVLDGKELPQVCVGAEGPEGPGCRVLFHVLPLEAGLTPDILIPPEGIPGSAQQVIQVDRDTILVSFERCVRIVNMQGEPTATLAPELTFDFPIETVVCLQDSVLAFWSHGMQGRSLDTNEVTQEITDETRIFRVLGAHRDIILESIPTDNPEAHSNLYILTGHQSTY
UniProt P28482, whole entry: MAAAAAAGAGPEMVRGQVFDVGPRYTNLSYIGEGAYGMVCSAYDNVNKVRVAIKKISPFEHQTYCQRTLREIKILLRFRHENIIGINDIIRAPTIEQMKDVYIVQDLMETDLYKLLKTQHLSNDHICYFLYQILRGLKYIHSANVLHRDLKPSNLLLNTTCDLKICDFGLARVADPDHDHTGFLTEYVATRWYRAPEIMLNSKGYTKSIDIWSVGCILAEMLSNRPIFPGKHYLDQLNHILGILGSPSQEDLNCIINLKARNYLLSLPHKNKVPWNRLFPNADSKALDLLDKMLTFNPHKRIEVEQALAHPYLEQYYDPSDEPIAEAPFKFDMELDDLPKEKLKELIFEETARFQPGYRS
UniProt Q16620, whole entry, looked up: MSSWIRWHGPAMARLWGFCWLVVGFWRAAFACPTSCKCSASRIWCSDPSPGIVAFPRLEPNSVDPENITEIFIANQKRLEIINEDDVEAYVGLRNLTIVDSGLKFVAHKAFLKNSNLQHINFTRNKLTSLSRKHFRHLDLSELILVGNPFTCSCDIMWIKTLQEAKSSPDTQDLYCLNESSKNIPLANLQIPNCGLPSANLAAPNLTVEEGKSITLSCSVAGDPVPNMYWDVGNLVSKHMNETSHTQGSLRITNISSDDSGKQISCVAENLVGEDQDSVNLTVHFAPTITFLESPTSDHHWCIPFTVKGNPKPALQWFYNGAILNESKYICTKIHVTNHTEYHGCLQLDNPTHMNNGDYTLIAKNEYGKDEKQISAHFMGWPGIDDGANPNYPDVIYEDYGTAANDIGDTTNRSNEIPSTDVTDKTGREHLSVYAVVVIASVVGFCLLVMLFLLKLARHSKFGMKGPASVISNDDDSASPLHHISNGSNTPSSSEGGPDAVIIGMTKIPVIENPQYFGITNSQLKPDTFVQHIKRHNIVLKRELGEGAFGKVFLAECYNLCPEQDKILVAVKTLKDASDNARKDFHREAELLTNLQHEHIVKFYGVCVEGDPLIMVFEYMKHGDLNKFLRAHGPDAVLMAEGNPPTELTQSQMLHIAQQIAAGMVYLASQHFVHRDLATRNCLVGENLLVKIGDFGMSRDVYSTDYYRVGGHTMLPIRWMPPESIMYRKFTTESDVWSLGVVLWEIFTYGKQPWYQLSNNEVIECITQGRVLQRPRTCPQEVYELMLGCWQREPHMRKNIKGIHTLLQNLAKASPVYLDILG
UniProt Q96KB5: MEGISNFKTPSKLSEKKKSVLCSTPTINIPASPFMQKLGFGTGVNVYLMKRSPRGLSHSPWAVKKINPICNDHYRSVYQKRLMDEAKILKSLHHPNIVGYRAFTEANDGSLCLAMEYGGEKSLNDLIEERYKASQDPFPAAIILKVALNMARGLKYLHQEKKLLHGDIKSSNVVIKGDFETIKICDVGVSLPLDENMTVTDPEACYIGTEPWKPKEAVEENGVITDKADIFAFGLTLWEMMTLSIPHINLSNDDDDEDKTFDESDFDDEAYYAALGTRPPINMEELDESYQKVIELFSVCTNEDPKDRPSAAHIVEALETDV
UniProt P09619, whole entry: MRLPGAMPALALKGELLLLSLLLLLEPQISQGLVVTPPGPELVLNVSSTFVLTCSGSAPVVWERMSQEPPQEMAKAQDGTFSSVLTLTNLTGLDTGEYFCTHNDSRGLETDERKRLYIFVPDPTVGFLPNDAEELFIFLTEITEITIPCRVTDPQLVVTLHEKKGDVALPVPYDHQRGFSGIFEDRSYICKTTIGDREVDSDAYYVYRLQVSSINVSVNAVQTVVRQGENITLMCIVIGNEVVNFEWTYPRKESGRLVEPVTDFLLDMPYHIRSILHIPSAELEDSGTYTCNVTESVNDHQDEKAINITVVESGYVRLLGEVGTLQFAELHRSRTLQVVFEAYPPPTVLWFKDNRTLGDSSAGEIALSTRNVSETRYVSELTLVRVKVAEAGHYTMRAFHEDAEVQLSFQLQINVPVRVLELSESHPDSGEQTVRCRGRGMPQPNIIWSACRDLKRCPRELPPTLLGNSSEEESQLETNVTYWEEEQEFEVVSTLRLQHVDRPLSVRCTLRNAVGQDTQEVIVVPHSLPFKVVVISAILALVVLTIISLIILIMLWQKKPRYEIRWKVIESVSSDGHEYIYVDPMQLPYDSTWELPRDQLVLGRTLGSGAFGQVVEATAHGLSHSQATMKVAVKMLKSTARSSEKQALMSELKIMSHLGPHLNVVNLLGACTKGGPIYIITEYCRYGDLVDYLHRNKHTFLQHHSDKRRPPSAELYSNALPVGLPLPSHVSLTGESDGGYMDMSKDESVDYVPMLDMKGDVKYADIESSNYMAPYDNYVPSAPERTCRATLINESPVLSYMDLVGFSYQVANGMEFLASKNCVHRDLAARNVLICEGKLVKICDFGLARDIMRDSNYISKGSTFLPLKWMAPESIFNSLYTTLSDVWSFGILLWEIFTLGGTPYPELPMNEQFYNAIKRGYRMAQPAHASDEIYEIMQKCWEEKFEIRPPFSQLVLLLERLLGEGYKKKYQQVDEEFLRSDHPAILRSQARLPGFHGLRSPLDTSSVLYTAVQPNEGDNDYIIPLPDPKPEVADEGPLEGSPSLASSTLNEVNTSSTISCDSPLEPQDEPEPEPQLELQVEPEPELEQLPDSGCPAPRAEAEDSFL
UniProt Q15118, whole entry, looked up: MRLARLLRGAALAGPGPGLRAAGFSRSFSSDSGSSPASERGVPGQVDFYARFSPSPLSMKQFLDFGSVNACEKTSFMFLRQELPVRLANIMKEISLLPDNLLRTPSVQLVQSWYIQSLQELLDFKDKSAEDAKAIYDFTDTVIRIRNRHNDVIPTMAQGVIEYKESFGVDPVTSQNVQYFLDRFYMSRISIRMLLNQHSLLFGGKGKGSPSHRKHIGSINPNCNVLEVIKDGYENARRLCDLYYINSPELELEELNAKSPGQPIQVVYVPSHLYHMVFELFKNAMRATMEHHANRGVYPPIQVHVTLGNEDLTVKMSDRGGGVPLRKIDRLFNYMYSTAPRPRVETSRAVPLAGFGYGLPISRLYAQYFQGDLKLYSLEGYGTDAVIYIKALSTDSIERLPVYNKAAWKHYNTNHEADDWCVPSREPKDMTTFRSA

Experiments:
Assay in all cases: kinase-Nluc reporter destabilization hit call (1 = scored as downregulated) (binary); higher = compound decreases kinase abundance
Conditions in all cases: K562; 2-18 h
IRAK3 = IRAK3 (UniProt Q9Y616)
JAK1 = JAK1 (UniProt P23458)
LCK = LCK (UniProt P06239)
LIMK1 = LIMK1 (UniProt P53667)
LIMK2 = LIMK2 (UniProt P53671)
LMTK2 = LMTK2 (UniProt Q8IWU2)
LYN = LYN (UniProt P07948)
MAP2K1 = MAP2K1 (UniProt Q02750)
MAP2K2 = MAP2K2 (UniProt P36507)
MAP4K2 = MAP4K2 (UniProt Q12851)
MAPK1 = MAPK1 (UniProt P28482)
MAPK4 = MAPK4 (UniProt P31152)
MAPKAPK2 = MAPKAPK2 (UniProt P49137)
MKNK1 = MKNK1 (UniProt Q9BUB5)
NTRK2 = NTRK2 (UniProt Q16620)
NTRK3 = NTRK3 (UniProt Q16288)
PAK4 = PAK4 (UniProt O96013)
PBK = PBK (UniProt Q96KB5)
PDGFRB = PDGFRB (UniProt P09619)
PDK1 = PDK1 (UniProt Q15118)

Measured: kinase-Nluc reporter destabilization hit call

CC(C)n1c(=O)n(C)c2cnc3cc(F)c(-c4ccc(OCCCN5CCCCC5)nc4)cc3c21 (10 µM)
inactive: IRAK3 = 0 | JAK1 = 0 | LCK 0 | LIMK1 = 0 | LIMK2 = 0 | LMTK2 = 0 | LYN 0 | MAP2K1 = 0 | MAP2K2 = 0 | MAP4K2 = 0 | MAPK1 = 0 | MAPK4 = 0 | MAPKAPK2 = 0 | MKNK1 = 0 | NTRK2 = 0 | NTRK3 = 0 | PAK4 = 0 | PBK 0 | PDGFRB 0 | PDK1 = 0

Cc1cnc(NC(=O)c2cc(Oc3cnc(C(=O)N(C)C)nc3)c3cc(C)oc3c2)cn1 (10 µM)
inactive: IRAK3 = 0 | JAK1 = 0 | LCK 0 | LIMK1 = 0 | LIMK2 = 0 | LMTK2 = 0 | LYN 0 | MAP2K1 = 0 | MAP2K2 = 0 | MAP4K2 = 0 | MAPK1 = 0 | MAPK4 = 0 | MAPKAPK2 = 0 | MKNK1 = 0 | NTRK2 = 0 | NTRK3 = 0 | PAK4 = 0 | PBK 0 | PDGFRB 0 | PDK1 = 0

COc1cc2c(cc1O)C[C@H]1c3cc(O)c(OC)cc3CC[N@@+]1(C)C2 [Phellodendrine] (10 µM)
inactive: IRAK3 = 0 | JAK1 = 0 | LCK 0 | LIMK1 = 0 | LIMK2 = 0 | LMTK2 = 0 | LYN 0 | MAP2K1 = 0 | MAP2K2 = 0 | MAP4K2 = 0 | MAPK1 = 0 | MAPK4 = 0 | MAPKAPK2 = 0 | MKNK1 = 0 | NTRK2 = 0 | NTRK3 = 0 | PAK4 = 0 | PBK 0 | PDGFRB 0 | PDK1 = 0

COc1ccc(-c2cc(=O)c3c(OC)cc(OC)c(OC)c3o2)cc1 [6-Demethoxytangeretin] (10 µM)
inactive: IRAK3 = 0 | JAK1 = 0 | LCK 0 | LIMK1 = 0 | LIMK2 = 0 | LMTK2 = 0 | LYN 0 | MAP2K1 = 0 | MAP2K2 = 0 | MAP4K2 = 0 | MAPK1 = 0 | MAPK4 = 0 | MAPKAPK2 = 0 | MKNK1 = 0 | NTRK2 = 0 | NTRK3 = 0 | PAK4 = 0 | PBK 0 | PDGFRB 0 | PDK1 = 0

COc1ccc2c3n(c(=NC(=O)c4cccnc4)nc2c1OC)CCN3 (2 µM)
inactive: IRAK3 = 0 | JAK1 = 0 | LCK 0 | LIMK1 = 0 | LIMK2 = 0 | LMTK2 = 0 | LYN 0 | MAP2K1 = 0 | MAP2K2 = 0 | MAP4K2 = 0 | MAPK1 = 0 | MAPK4 = 0 | MAPKAPK2 = 0 | MKNK1 = 0 | NTRK2 = 0 | NTRK3 = 0 | PAK4 = 0 | PBK 0 | PDGFRB 0 | PDK1 = 0

C=CC(=O)N1CC[C@@H](Oc2nc(Nc3ccc(N4CCC(N5CCN(C)CC5)CC4)cc3)c(C(N)=O)nc2CC)C1 [Naquotinib (mesylate)] (2.5 µM)
inactive: IRAK3 = 0 | JAK1 = 0 | LCK 0 | LIMK1 = 0 | LIMK2 = 0 | LMTK2 = 0 | LYN 0 | MAP2K1 = 0 | MAP2K2 = 0 | MAP4K2 = 0 | MAPK1 = 0 | MAPK4 = 0 | MAPKAPK2 = 0 | MKNK1 = 0 | NTRK2 = 0 | NTRK3 = 0 | PAK4 = 0 | PBK 0 | PDGFRB 0 | PDK1 = 0

Nc1[nH]nc2nc(-c3ccc(NS(=O)(=O)c4cc(Cl)ccc4Cl)cc3)cnc12 (10 µM)
inactive: IRAK3 = 0 | JAK1 = 0 | LCK 0 | LIMK1 = 0 | LIMK2 = 0 | LMTK2 = 0 | LYN 0 | MAP2K1 = 0 | MAP2K2 = 0 | MAP4K2 = 0 | MAPK1 = 0 | MAPK4 = 0 | MAPKAPK2 = 0 | MKNK1 = 0 | NTRK2 = 0 | NTRK3 = 0 | PAK4 = 0 | PBK 0 | PDGFRB 0 | PDK1 = 0

Nc1nc(NCCNc2ncc(-n3ccnc3)c(-c3ccc(Cl)cc3Cl)n2)ccc1[N+](=O)[O-] (2.5 µM)
inactive: IRAK3 = 0 | JAK1 = 0 | LCK 0 | LIMK1 = 0 | LIMK2 = 0 | LMTK2 = 0 | LYN 0 | MAP2K1 = 0 | MAP2K2 = 0 | MAP4K2 = 0 | MAPK1 = 0 | MAPK4 = 0 | MAPKAPK2 = 0 | MKNK1 = 0 | NTRK2 = 0 | NTRK3 = 0 | PAK4 = 0 | PBK 0 | PDGFRB 0 | PDK1 = 0

CC1(N)CCN(c2cccnc2NC(=O)c2nc(-c3ncccc3C(F)(F)F)cnc2N)CC1 [Darovasertib] (10 µM)
inactive: IRAK3 = 0 | JAK1 = 0 | LCK 0 | LIMK1 = 0 | LIMK2 = 0 | LMTK2 = 0 | LYN 0 | MAP2K1 = 0 | MAP2K2 = 0 | MAP4K2 = 0 | MAPK1 = 0 | MAPK4 = 0 | MAPKAPK2 = 0 | MKNK1 = 0 | NTRK2 = 0 | NTRK3 = 0 | PAK4 = 0 | PBK 0 | PDGFRB 0 | PDK1 = 0

COc1cc(N2CCOCC2)ccc1Nc1ncc(F)c(Nc2ccccc2NS(C)(=O)=O)n1 (10 µM)
inactive: IRAK3 = 0 | JAK1 = 0 | LCK 0 | LIMK1 = 0 | LIMK2 = 0 | LMTK2 = 0 | LYN 0 | MAP2K1 = 0 | MAP2K2 = 0 | MAP4K2 = 0 | MAPK1 = 0 | MAPK4 = 0 | MAPKAPK2 = 0 | MKNK1 = 0 | NTRK2 = 0 | NTRK3 = 0 | PAK4 = 0 | PBK 0 | PDGFRB 0 | PDK1 = 0

COc1ccc(Nc2ncc(C(F)(F)F)c(NC3CC3)n2)cc1OC (10 µM)
inactive: IRAK3 = 0 | JAK1 = 0 | LCK 0 | LIMK1 = 0 | LIMK2 = 0 | LMTK2 = 0 | LYN 0 | MAP2K1 = 0 | MAP2K2 = 0 | MAP4K2 = 0 | MAPK1 = 0 | MAPK4 = 0 | MAPKAPK2 = 0 | MKNK1 = 0 | NTRK2 = 0 | NTRK3 = 0 | PAK4 = 0 | PBK 0 | PDGFRB 0 | PDK1 = 0

Cc1cccc(COc2cccc(/C=C3\C(=O)NN(c4ccccc4)C3=O)c2)c1 (10 µM)
inactive: IRAK3 = 0 | JAK1 = 0 | LCK 0 | LIMK1 = 0 | LIMK2 = 0 | LMTK2 = 0 | LYN 0 | MAP2K1 = 0 | MAP2K2 = 0 | MAP4K2 = 0 | MAPK1 = 0 | MAPK4 = 0 | MAPKAPK2 = 0 | MKNK1 = 0 | NTRK2 = 0 | NTRK3 = 0 | PAK4 = 0 | PBK 0 | PDGFRB 0 | PDK1 = 0

O=C(NCCO)c1cc(C(=O)NCCO)cc(C(=O)NCCO)c1 (10 µM)
inactive: IRAK3 = 0 | JAK1 = 0 | LCK 0 | LIMK1 = 0 | LIMK2 = 0 | LMTK2 = 0 | LYN 0 | MAP2K1 = 0 | MAP2K2 = 0 | MAP4K2 = 0 | MAPK1 = 0 | MAPK4 = 0 | MAPKAPK2 = 0 | MKNK1 = 0 | NTRK2 = 0 | NTRK3 = 0 | PAK4 = 0 | PBK 0 | PDGFRB 0 | PDK1 = 0

Cn1ncc(NC(=O)c2nc(-c3c(F)cccc3F)sc2N)c1N1CC[C@@H](N)[C@H](F)CC1 (10 µM)
inactive: IRAK3 = 0 | JAK1 = 0 | LCK 0 | LIMK1 = 0 | LIMK2 = 0 | LMTK2 = 0 | LYN 0 | MAP2K1 = 0 | MAP2K2 = 0 | MAP4K2 = 0 | MAPK1 = 0 | MAPK4 = 0 | MAPKAPK2 = 0 | MKNK1 = 0 | NTRK2 = 0 | NTRK3 = 0 | PAK4 = 0 | PBK 0 | PDGFRB 0 | PDK1 = 0

CC(C)=CC[C@@H](O)C1=CC(=O)c2c(O)ccc(O)c2C1=O [Shikonin] (10 µM)
inactive: IRAK3 = 0 | JAK1 = 0 | LCK 0 | LIMK1 = 0 | LIMK2 = 0 | LMTK2 = 0 | LYN 0 | MAP2K1 = 0 | MAP2K2 = 0 | MAP4K2 = 0 | MAPK1 = 0 | MAPK4 = 0 | MAPKAPK2 = 0 | MKNK1 = 0 | NTRK2 = 0 | NTRK3 = 0 | PAK4 = 0 | PBK 0 | PDGFRB 0 | PDK1 = 0

CC(C)CCN1c2nc(Nc3cc(F)c(O)c(F)c3)ncc2N(C)C(=O)C1C (stereo not given) (2.5 µM)
inactive: IRAK3 = 0 | JAK1 = 0 | LCK 0 | LIMK1 = 0 | LIMK2 = 0 | LMTK2 = 0 | LYN 0 | MAP2K1 = 0 | MAP2K2 = 0 | MAP4K2 = 0 | MAPK1 = 0 | MAPK4 = 0 | MAPKAPK2 = 0 | MKNK1 = 0 | NTRK2 = 0 | NTRK3 = 0 | PAK4 = 0 | PBK 0 | PDGFRB 0 | PDK1 = 0

O=C1Nc2ccc(I)cc2/C1=C/c1cc(Br)c(O)c(Br)c1 (10 µM)
inactive: IRAK3 = 0 | JAK1 = 0 | LCK 0 | LIMK1 = 0 | LIMK2 = 0 | LMTK2 = 0 | LYN 0 | MAP2K1 = 0 | MAP2K2 = 0 | MAP4K2 = 0 | MAPK1 = 0 | MAPK4 = 0 | MAPKAPK2 = 0 | MKNK1 = 0 | NTRK2 = 0 | NTRK3 = 0 | PAK4 = 0 | PBK 0 | PDGFRB 0 | PDK1 = 0

3 compounds from above, arranged by length of the SMILES, low to high.
O=C(NCCO)c1cc(C(=O)NCCO)cc(C(=O)NCCO)c1 (10 µM)
inactive: IRAK3 = 0 | JAK1 = 0 | LCK 0 | LIMK1 = 0 | LIMK2 = 0 | LMTK2 = 0 | LYN 0 | MAP2K1 = 0 | MAP2K2 = 0 | MAP4K2 = 0 | MAPK1 = 0 | MAPK4 = 0 | MAPKAPK2 = 0 | MKNK1 = 0 | NTRK2 = 0 | NTRK3 = 0 | PAK4 = 0 | PBK 0 | PDGFRB 0 | PDK1 = 0

CC(C)=CC[C@@H](O)C1=CC(=O)c2c(O)ccc(O)c2C1=O [Shikonin] (10 µM)
inactive: IRAK3 = 0 | JAK1 = 0 | LCK 0 | LIMK1 = 0 | LIMK2 = 0 | LMTK2 = 0 | LYN 0 | MAP2K1 = 0 | MAP2K2 = 0 | MAP4K2 = 0 | MAPK1 = 0 | MAPK4 = 0 | MAPKAPK2 = 0 | MKNK1 = 0 | NTRK2 = 0 | NTRK3 = 0 | PAK4 = 0 | PBK 0 | PDGFRB 0 | PDK1 = 0

Cn1ncc(NC(=O)c2nc(-c3c(F)cccc3F)sc2N)c1N1CC[C@@H](N)[C@H](F)CC1 (10 µM)
inactive: IRAK3 = 0 | JAK1 = 0 | LCK 0 | LIMK1 = 0 | LIMK2 = 0 | LMTK2 = 0 | LYN 0 | MAP2K1 = 0 | MAP2K2 = 0 | MAP4K2 = 0 | MAPK1 = 0 | MAPK4 = 0 | MAPKAPK2 = 0 | MKNK1 = 0 | NTRK2 = 0 | NTRK3 = 0 | PAK4 = 0 | PBK 0 | PDGFRB 0 | PDK1 = 0

(cont.)

CC(C)Oc1ccc(F)c(-c2cnc(N)c(C(=O)Nc3cnccc3N3CCC[C@@H](C(=O)O)C3)n2)c1 (2 µM)
inactive: IRAK3 = 0 | JAK1 = 0 | LCK 0 | LIMK1 = 0 | LIMK2 = 0 | LMTK2 = 0 | LYN 0 | MAP2K1 = 0 | MAP2K2 = 0 | MAP4K2 = 0 | MAPK1 = 0 | MAPK4 = 0 | MAPKAPK2 = 0 | MKNK1 = 0 | NTRK2 = 0 | NTRK3 = 0 | PAK4 = 0 | PBK 0 | PDGFRB 0 | PDK1 = 0
